No constants are given. Whether binding was seen depends on the method and setting. In cells and extracts the contact can be indirect. Some entries that bind do so weakly or less than the wild type.
T1: OCT6 (human (endogenous in Ishikawa)) (UniProt Q03052)
T1 sequence: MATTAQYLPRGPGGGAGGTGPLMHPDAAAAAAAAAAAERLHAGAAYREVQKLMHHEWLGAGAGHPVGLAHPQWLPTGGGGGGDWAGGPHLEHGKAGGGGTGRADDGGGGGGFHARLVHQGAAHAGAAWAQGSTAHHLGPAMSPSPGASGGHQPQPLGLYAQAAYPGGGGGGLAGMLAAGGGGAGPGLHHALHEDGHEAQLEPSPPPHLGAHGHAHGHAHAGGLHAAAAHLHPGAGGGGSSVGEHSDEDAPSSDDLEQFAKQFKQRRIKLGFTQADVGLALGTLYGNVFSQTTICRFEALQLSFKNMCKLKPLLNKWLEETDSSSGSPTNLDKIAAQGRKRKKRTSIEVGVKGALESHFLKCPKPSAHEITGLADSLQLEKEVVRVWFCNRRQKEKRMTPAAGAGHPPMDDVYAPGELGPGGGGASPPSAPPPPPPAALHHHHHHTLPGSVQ


Assays:
[1] = biological target: T1, OCT6 (human (endogenous in Ishikawa)); assay: co-IP; endogenous proteins; Ishikawa and HEC1-A cells with or without 40 µM MPA for 24 h; NP40 lysis buffer; indicated antibodies overnight, then protein A/G agarose beads 4 h at 4 °C; immunoblot
[2] = biological target: T1, OCT6 (human (endogenous in Ishikawa)); assay: co-IP; chromatin fraction of Ishikawa cells with or without MPA (pellet solubilised in RIPA buffer with 500 mM NaCl); immunoprecipitation and immunoblot
[3] = biological target: Flag-tagged IDH1 wild type (isocitrate dehydrogenase 1) (human) (UniProt O75874); assay: co-IP; Flag-tagged proteins; cells with or without MPA; NP40 lysis buffer; Flag-conjugated M2 beads overnight at 4 °C; immunoblot

| binding [1] | binding [2] | binding [3] | Molecule |
| --- | --- | --- | --- |
| binds | binds | – | IDH1, endogenous (from UniProt O75874 1-414) (enzyme) |
| – | – | binds | OCT6 (protein, UniProt Q03052 1-451) MATTAQYLPRGPGGGAGGTGPLMHPDAAAAAAAAAAAERLHAGAAYREVQKLMHHEWLGAGAGHPVGLAHPQWLPTGGGGGGDWAGGPHLEHGKAGGGGTGRADDGGGGGGFHARLVHQGAAHAGAAWAQGSTAHHLGPAMSPSPGASGGHQPQPLGLYAQAAYPGGGGGGLAGMLAAGGGGAGPGLHHALHEDGHEAQLEPSPPPHLGAHGHAHGHAHAGGLHAAAAHLHPGAGGGGSSVGEHSDEDAPSSDDLEQFAKQFKQRRIKLGFTQADVGLALGTLYGNVFSQTTICRFEALQLSFKNMCKLKPLLNKWLEETDSSSGSPTNLDKIAAQGRKRKKRTSIEVGVKGALESHFLKCPKPSAHEITGLADSLQLEKEVVRVWFCNRRQKEKRMTPAAGAGHPPMDDVYAPGELGPGGGGASPPSAPPPPPPAALHHHHHHTLPGSVQ |

From publication PMC11187910
